Laboratory results from the supplement of paper PMC10331698.
± gives the standard deviation of the averaged measurements. Small differences around the control level are noise.

Tests used:
Test in all cases: level (log10 ratio to DMSO vehicle control); higher = higher biomarker level / cell amount than vehicle control
[1] = compound: OCC(F)(F)C(F)(F)C(F)(F)C(F)(F)C(F)(F)C(F)(F)CO [1H,1H,8H,8H-Perfluorooctane-1,8-diol] (in DMSO); conditions: 2200 nM
Procedure: (§1)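 BioMAP Diversity Plus panel of 12 human primary cell co-culture systems (3C, 4H, LPS, SAg, BT, BF4T, BE3C, CASM3C, HDF3CGF, KF3CT, MyoF, Mphg). Compounds were added 1 h before stimulation and left for 24 h (MyoF 48 h; BT 72 h for soluble read-outs or 6 d for IgG). Biomarkers were read by ELISA, cytotoxicity by SRB, PBMC viability and proliferation by Alamar Blue. Each well value was divided by the mean of 8 DMSO control wells on the same plate and log10 transformed; duplicate blinded samples were tested at 4 concentrations.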

[2] = compound: FC(F)(F)C(F)(F)C(F)(F)C(F)(F)CCI [1H,1H,2H,2H-Perfluorohexyl iodide] (in DMSO); conditions: 2200 nM
Procedure: as §1

[3] = compound: OCC(F)(F)C(F)(F)C(F)(F)C(F)(F)C(F)(F)C(F)(F)F [6:1 Fluorotelomer alcohol] (in DMSO); conditions: 2200 nM
Procedure: as §1

[4] = compound: OCC(F)(F)OC(F)(F)C(F)(F)OC(F)(F)CO [1H,1H,8H,8H-Perfluoro-3,6-dioxaoctane-1,8-diol] (in DMSO); conditions: 2200 nM
Procedure: as §1

[5] = compound: O=C(O)C(F)(F)C(F)(F)C(F)(F)C(=O)O [Hexafluoroglutaric acid] (in DMSO)
Procedure: as §1

[6] = compound: FC(F)(F)C(F)(F)CNCC(F)(F)C(F)(F)F [Bis(1H,1H-perfluoropropyl)amine] (in DMSO); conditions: 2200 nM
Procedure: as §1

[7] = compound: O=C(O)C(F)(F)C(F)(F)C(F)(F)OC(F)(C(F)(F)F)C(F)(F)F [Perfluoro-4-isopropoxybutanoic acid] (in DMSO); conditions: 2200 nM
Procedure: as §1

[8] = compound: C=C(C)C(=O)OCCC(F)(F)C(F)(F)C(F)(F)C(F)(F)C(F)(F)C(F)(F)F [6:2 Fluorotelomer methacrylate] (in DMSO); conditions: 2200 nM
Procedure: as §1

[9] = compound: O=C(O)CCC(F)(F)C(F)(F)C(F)(F)F [3:3 Fluorotelomer carboxylic acid] (in DMSO); conditions: 2200 nM
Procedure: as §1

[10] = compound: O=C(O)C(F)(OC(F)(F)C(F)(F)C(F)(F)F)C(F)(F)F [Ammonium perfluoro-2-methyl-3-oxahexanoate] (in Water)
Procedure: as §1

[11] = compound: OCC(F)(F)C(F)(F)C(F)(F)C(F)F [1H,1H,5H-Perfluoropentanol] (in DMSO); conditions: 2200 nM
Procedure: as §1

[12] = compound: CNS(=O)(=O)C(F)(F)C(F)(F)C(F)(F)C(F)(F)C(F)(F)C(F)(F)C(F)(F)C(F)(F)F [N-Methylperfluorooctanesulfonamide] (in DMSO); conditions: 2200 nM
Procedure: as §1

[13] = compound: OCCCC(F)(F)C(F)(F)C(F)(F)C(F)(F)C(F)(F)C(F)(F)C(F)(F)C(F)(F)F [3-(Perfluorooctyl)propanol] (in DMSO); conditions: 2200 nM
Procedure: as §1

[14] = compound: O=C(O)C(F)(OC(F)(F)C(F)(OC(F)(F)C(F)(OC(F)(F)C(F)(F)C(F)(F)F)C(F)(F)F)C(F)(F)F)C(F)(F)F [Perfluoro-(2,5,8-trimethyl-3,6,9-trioxadodecanoic)acid] (in DMSO); conditions: 370 nM
Procedure: as §1

[15] = compound: O=S(=O)(O)C(F)(F)C(F)(F)C(F)(F)C(F)(F)F [Perfluorobutanesulfonic acid] (in DMSO)
Procedure: as §1

[16] = compound: O=C(O)C(F)(F)C(F)(F)C(F)(F)C(F)(F)C(F)(F)F [Perfluorohexanoic acid] (in DMSO)
Procedure: as §1

[17] = compound: FC(F)(F)COC(OCC(F)(F)F)OCC(F)(F)F [tris(Trifluoroethoxy)methane] (in DMSO); conditions: 2200 nM
Procedure: as §1

Test System | level (log10) [1] | level (log10) [2] | level (log10) [3] | level (log10) [4] | level (log10) ([5]; 2200 nM) | level (log10) ([5]; 6700 nM) | level (log10) ([5]; 20000 nM) | level (log10) ([5]; 60000 nM) | level (log10) [6] | level (log10) [7] | level (log10) [8] | level (log10) [9] | level (log10) ([10]; 2200 nM) | level (log10) ([10]; 6700 nM) | level (log10) ([10]; 20000 nM) | level (log10) ([10]; 60000 nM) | level (log10) [11] | level (log10) [12] | level (log10) [13] | level (log10) [14] | level (log10) ([15]; 2200 nM) | level (log10) ([15]; 6700 nM) | level (log10) ([15]; 20000 nM) | level (log10) ([15]; 60000 nM) | level (log10) ([16]; 2200 nM) | level (log10) ([16]; 6700 nM) | level (log10) ([16]; 20000 nM) | level (log10) ([16]; 60000 nM) | level (log10) [17]
MyoF:CXCL8/IL-8 | -0.0075 ± 0.015 | 0.0625 ± 0.054 | 0.007 ± 0.018 | 0.0485 ± 0.025 | 0.018 ± 0.0042 | -0.0085 ± 0.0021 | -0.0225 ± 0.013 | -0.0015 ± 0.021 | 0.003 ± 0.0057 | 0.028 ± 0.0028 | 0.026 ± 0.068 | -0.0005 ± 0.044 | -0.0405 ± 0.056 | -0.0355 ± 0.032 | -0.0385 ± 0.011 | -0.045 ± 0.011 | 0.015 ± 0.11 | 0.002 ± 0.057 | -0.0075 ± 0.0064 | 0.0265 ± 0.016 | 0.039 ± 0.054 | 0.007 ± 0.042 | 0.0425 ± 0.021 | 0.0665 ± 0.0064 | 0.0005 ± 0.0078 | -0.0015 ± 0.016 | -0.0075 ± 0.026 | -0.015 ± 0.05 | -0.014 ± 0.018
MyoF:Collagen I | 0.0015 ± 0.046 | 0.01 ± 0.016 | -0.008 ± 0.0057 | -0.01 ± 0.042 | 0.0055 ± 0.025 | -0.003 ± 0.013 | -0.0005 ± 0.016 | 0.011 ± 0.0014 | -0.008 ± 0.0099 | 0.0115 ± 0.026 | 0.0105 ± 0.028 | 0.0065 ± 0.016 | 0.008 ± 0.0071 | -0.0135 ± 0.061 | -0.024 ± 0.024 | -0.027 ± 0.031 | 0.013 ± 0.035 | 0.0095 ± 0.022 | -0.0065 ± 0.035 | -0.023 ± 0.0042 | 0.0165 ± 0.028 | -0.017 ± 0.023 | -0.004 ± 0.0014 | -0.0235 ± 0.0064 | -0.005 ± 0.0042 | -0.01 ± 0.0057 | -0.0095 ± 0.0092 | -0.0025 ± 0.011 | -0.0135 ± 0.018
MyoF:Collagen III | -0.0045 ± 0.0078 | -0.002 ± 0.0014 | -0.0005 ± 0.015 | -0.0235 ± 0.0064 | 0.0105 ± 0.005 | 0.006 ± 0.0042 | 0.0035 ± 0.005 | 0.0055 ± 0.00071 | -0.013 ± 0.025 | 0.008 | 0.0285 ± 0.021 | -0.007 ± 0.016 | -0.008 ± 0.0042 | 0.0135 ± 0.0035 | 0.006 ± 0.023 | -0.035 ± 0.034 | 0.024 ± 0.016 | 0.003 ± 0.0085 | -0.0155 ± 0.023 | -0.007 ± 0.0085 | 0.0135 ± 0.025 | 0.02 ± 0.024 | 0.0265 ± 0.0064 | 0.0145 ± 0.0064 | 0.004 | 0.0075 ± 0.012 | 0.003 ± 0.02 | 0.0105 ± 0.0092 | -0.015 ± 0.0028
MyoF:Collagen IV | 0.022 ± 0.033 | 0.016 ± 0.0042 | -0.03 ± 0.0028 | 0.006 ± 0.024 | -0.006 ± 0.018 | -0.004 ± 0.013 | 0.002 ± 0.021 | -0.0055 ± 0.0064 | -0.034 ± 0.017 | 0.015 ± 0.013 | 0.0095 ± 0.06 | -0.026 ± 0.0057 | 0.012 ± 0.023 | -0.013 ± 0.0057 | 0.0045 ± 0.011 | 0.0105 ± 0.012 | 0.015 ± 0.034 | 0.0775 ± 0.032 | 0 ± 0.0014 | 0.0235 ± 0.0092 | 0.023 ± 0.045 | 0.04 ± 0.0057 | 0.0055 ± 0.033 | 0.016 ± 0.013 | 0.025 ± 0.033 | 0.0245 ± 0.0064 | 0.0165 ± 0.0064 | 0.0345 ± 0.037 | 0.0195 ± 0.012
MyoF:Decorin | 0.003 ± 0.078 | 0.007 ± 0.02 | 0.0175 ± 0.013 | -0.002 ± 0.0014 | 0.0035 ± 0.0078 | -0.0145 ± 0.0078 | -0.0225 ± 0.0064 | -0.031 ± 0.0099 | -0.004 ± 0.0071 | 0.0145 ± 0.047 | 0.007 ± 0.0014 | -0.0255 ± 0.016 | 0.001 ± 0.033 | -0.048 ± 0.023 | -0.02 ± 0.0085 | -0.024 ± 0.013 | 0.0285 ± 0.079 | 0.0225 ± 0.052 | 0.0185 ± 0.042 | -0.0055 ± 0.011 | 0.033 | 0.0315 ± 0.012 | 0.03 ± 0.016 | 0.083 ± 0.013 | -0.0215 ± 0.0092 | -0.0215 ± 0.015 | 0.0005 ± 0.023 | 0.024 ± 0.013 | -0.0155 ± 0.012
MyoF:MMP-1 | 0.013 ± 0.099 | 0.033 ± 0.044 | 0.006 ± 0.055 | 0.0045 ± 0.074 | 0.0165 ± 0.0078 | 0 ± 0.0085 | -0.0115 ± 0.012 | -0.008 ± 0.014 | 0.016 ± 0.064 | 0.0285 ± 0.061 | 0.0575 ± 0.032 | 0.0165 ± 0.076 | 0.0225 ± 0.04 | -0.0025 ± 0.0064 | 0.0185 ± 0.0092 | -0.0095 ± 0.0064 | -0.0415 ± 0.0092 | -0.0045 ± 0.08 | 0.0105 ± 0.08 | -0.0165 ± 0.05 | 0.054 ± 0.052 | 0.0385 ± 0.005 | 0.065 ± 0.0071 | 0.0885 ± 0.0035 | 0.0095 ± 0.029 | -0.0115 ± 0.0035 | -0.0055 ± 0.019 | 0.0235 ± 0.025 | 0.01 ± 0.078
MyoF:PAI-I | 0.0135 ± 0.0064 | 0.0095 ± 0.0035 | 0.001 ± 0.0071 | -0.0105 ± 0.021 | -0.0015 ± 0.0021 | -0.0025 ± 0.021 | -0.0035 ± 0.015 | 0.003 | -0.007 ± 0.0057 | 0.0035 ± 0.012 | -0.01 ± 0.0042 | -0.006 ± 0.0099 | -0.017 ± 0.02 | -0.0005 ± 0.005 | -0.0025 ± 0.0064 | -0.019 ± 0.011 | -0.006 ± 0.018 | 0.011 ± 0.0028 | -0.0065 ± 0.013 | 0.006 ± 0.025 | -0.008 ± 0.0085 | -0.011 ± 0.013 | 0.0065 ± 0.0078 | 0.0005 ± 0.0064 | -0.006 ± 0.0014 | 0.0025 ± 0.005 | 0.002 ± 0.0028 | 0.009 | -0.0135 ± 0.015
